# In PubChem BioAssay (EPA / NIEHS):
# By UniProt entry, the sequences of proteins in these tests, tags left out. Where a name states a change or a piece, a line headed by the entry shows the natural chain unless it says otherwise.
# UniProt P19793: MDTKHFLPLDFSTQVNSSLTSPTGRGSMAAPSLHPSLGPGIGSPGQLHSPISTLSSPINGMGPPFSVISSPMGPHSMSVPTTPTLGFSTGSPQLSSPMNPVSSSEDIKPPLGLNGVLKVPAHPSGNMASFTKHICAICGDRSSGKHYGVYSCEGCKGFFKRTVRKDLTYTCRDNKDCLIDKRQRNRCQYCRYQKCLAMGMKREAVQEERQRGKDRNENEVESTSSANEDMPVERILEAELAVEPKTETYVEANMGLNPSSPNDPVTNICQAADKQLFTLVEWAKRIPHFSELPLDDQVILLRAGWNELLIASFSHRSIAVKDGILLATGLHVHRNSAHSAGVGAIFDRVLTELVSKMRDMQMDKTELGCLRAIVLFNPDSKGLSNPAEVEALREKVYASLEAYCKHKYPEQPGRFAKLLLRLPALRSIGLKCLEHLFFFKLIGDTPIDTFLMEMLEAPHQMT
# UniProt P28702: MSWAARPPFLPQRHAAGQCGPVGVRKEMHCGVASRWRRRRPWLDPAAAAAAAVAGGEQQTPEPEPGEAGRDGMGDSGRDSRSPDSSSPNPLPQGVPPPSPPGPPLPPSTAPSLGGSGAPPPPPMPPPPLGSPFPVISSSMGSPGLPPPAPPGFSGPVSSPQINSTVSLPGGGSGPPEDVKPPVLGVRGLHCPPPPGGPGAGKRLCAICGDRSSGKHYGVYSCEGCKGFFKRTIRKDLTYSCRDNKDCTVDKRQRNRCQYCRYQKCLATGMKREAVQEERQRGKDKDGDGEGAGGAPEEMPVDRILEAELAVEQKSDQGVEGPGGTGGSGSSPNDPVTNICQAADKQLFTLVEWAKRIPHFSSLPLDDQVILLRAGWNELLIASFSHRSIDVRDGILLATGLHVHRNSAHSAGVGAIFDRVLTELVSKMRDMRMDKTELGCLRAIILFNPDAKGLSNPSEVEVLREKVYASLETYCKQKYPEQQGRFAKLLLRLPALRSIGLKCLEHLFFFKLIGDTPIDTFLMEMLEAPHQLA
# UniProt P10827: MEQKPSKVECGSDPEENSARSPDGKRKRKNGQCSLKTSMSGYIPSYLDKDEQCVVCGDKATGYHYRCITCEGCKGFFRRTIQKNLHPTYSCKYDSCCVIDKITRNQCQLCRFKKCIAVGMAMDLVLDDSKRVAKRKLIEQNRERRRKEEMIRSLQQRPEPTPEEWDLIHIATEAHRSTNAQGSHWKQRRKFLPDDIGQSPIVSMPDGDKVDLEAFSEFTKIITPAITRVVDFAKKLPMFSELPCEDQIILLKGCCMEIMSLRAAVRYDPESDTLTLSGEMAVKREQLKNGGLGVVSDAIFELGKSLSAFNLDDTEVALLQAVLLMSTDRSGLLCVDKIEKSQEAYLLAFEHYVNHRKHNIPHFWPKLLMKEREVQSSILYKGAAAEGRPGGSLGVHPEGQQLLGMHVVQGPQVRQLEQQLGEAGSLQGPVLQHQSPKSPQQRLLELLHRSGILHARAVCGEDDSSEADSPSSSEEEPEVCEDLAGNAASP
# Inconclusive means that the source gave no clear call. Such entries were picked first, then a sample of the others. Potencies of inconclusive entries are doubtful fits and often do not repeat. The source made the active and inactive calls. The calls were made as follows: active = hit-call score of the fitted dose curve at least 0.9, where 1 is the maximum; inconclusive = response in the unintended direction; inactive = score below 0.9.
# Molecular target: Retinoic acid receptor RXR-alpha (Homo sapiens) (UniProt P19793)
# Experiment: ATG_RXRa_TRANS: Attagene TRANS-FACTORIAL HepG2 Assay for human Retinoid X Receptor alpha (RXRa) (AID 2283012)
# In short: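 HepG2 cells transiently transfected with multiplexed GAL4-UAS reporter units and chimeric NR-GAL4 fusions, dosed 24 h. Reporter mRNA measured by RT-PCR, FAM labelling, HpaI digestion and capillary electrophoresis; gain-of-signal fitted relative to DMSO baseline.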
Structure (SMILES),AC50,outcome
Nc1ccc2cc(S(=O)(=O)O)cc(O)c2c1N=Nc1ccccc1C(F)(F)F,active: 78 µM,
CCNc1ccccc1,inconclusive: 23.6 µM,
c1ccc(Nc2cccc3ccccc23)cc1,active: 43.4 µM,

# Molecular target: human Retinoid X Receptor beta (RXRb), RXRB (gene 6257) (UniProt P28702)
# Experiment: ATG_RXRb_TRANS: Attagene TRANS-FACTORIAL HepG2 Assay for human Retinoid X Receptor beta (RXRb) (AID 2283013)
# In short: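 HepG2 cells transiently transfected with multiplexed reporter units driven by GAL4-UAS and exogenous chimeric NR-Gal4 proteins; treated 24 h. Reporter mRNA measured by RT-PCR, 6-FAM labelling and capillary electrophoresis; gain-of-signal fitted versus DMSO baseline.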
Structure (SMILES),outcome,AC50
COc1ccc([C@@H]2CC(=O)c3c(O)cc(O[C@@H]4O[C@H](CO[C@@H]5O[C@@H](C)[C@H](O)[C@@H](O)[C@H]5O)[C@@H](O)[C@H](O)[C@H]4O)cc3O2)cc1OC,inactive,
NNc1nc(-c2ccc(N)cc2)cs1,inactive,
Nc1ccc2cc(S(=O)(=O)O)cc(O)c2c1N=Nc1ccccc1C(F)(F)F,,active: 14.8 µM
CCC=C(C)C=O,,active: 26.6 µM
CC(C)Oc1ccccc1O,,inconclusive: 100 µM
CCCCCCCCCCCCCC[n+]1ccccc1,inactive,
CCCCCCCCN1CCCC1=O,,inconclusive: 100 µM
Cc1ccc(Nc2ccc(O)c3c2C(=O)c2ccccc2C3=O)cc1,,inconclusive: 6.72 µM
CCCCC(CC)CN1C(=O)C2C3C=CC(C3)C2C1=O (configuration not stated),inactive,
CCCCCCCCCCC1CO1 (configuration not stated),inactive,
CCN(CCO)S(=O)(=O)C(F)(F)C(F)(F)C(F)(F)C(F)(F)C(F)(F)C(F)(F)C(F)(F)C(F)(F)F,,inconclusive: 150 µM
CC/C=C\CCOC(=O)c1ccccc1,inactive,
CCCCCC#CC(=O)OC,,active: 100 µM

# Individual results from the list:
# AC50 with CCCCCC#CC(=O)OC reads active: 100 µM
# AC50 with Cc1ccc(Nc2ccc(O)c3c2C(=O)c2ccccc2C3=O)cc1 reads inconclusive: 6.72 µM
# outcome with CCCCCCCCCCCCCC[n+]1ccccc1 reads inactive

# Further compounds follow.

Structure (SMILES),outcome,AC50
CCNc1ccccc1,inactive,
c1ccc(Nc2cccc3ccccc23)cc1,,active: 11.9 µM
CN(C)c1ccc(C(c2ccccc2)c2ccc(N(C)C)cc2)cc1,inactive,
CCOC(=O)COC(=O)c1cc(Oc2ccc(C(F)(F)F)cc2Cl)ccc1[N+](=O)[O-],,inconclusive: 26.5 µM
CCOC(=O)CC(C)O (configuration not stated),,inconclusive: 100 µM
O=C(Cl)C(F)(F)C(F)(F)C(F)(F)C(F)(F)C(F)(F)C(F)(F)C(F)(F)C(F)(F)F,,active: 25.7 µM
C=C(C)[C@H]1CC=C(C)C(=O)C1,inactive,
CC(=O)OC/C=C(C)/C=C/C=C(C)/C=C/C1=C(C)CCCC1(C)C,,inconclusive: 100 µM
CC(C)c1nnc2ccc(-c3ocnc3-c3cc(F)ccc3F)cn12,inactive,
O=C1NC(=O)C2CC=CCC12 (configuration not stated),,inconclusive: 100 µM
CCCCCCC#CC(=O)OC,,inconclusive: 5.45 µM
CC1COCc2cc3c(cc21)C(C)(C)C(C)C3(C)C (configuration not stated),,active: 8.91 µM
O=C(O)c1ccccc1Nc1cccc(C(F)(F)F)c1,,inconclusive: 100 µM
CCN(Cc1c(F)cccc1Cl)c1c([N+](=O)[O-])cc(C(F)(F)F)cc1[N+](=O)[O-],inactive,

# Part of the list above in order of number of heavy atoms, high to low.
Structure (SMILES),outcome,AC50
CC(=O)OC/C=C(C)/C=C/C=C(C)/C=C/C1=C(C)CCCC1(C)C,,inconclusive: 100 µM
CC1COCc2cc3c(cc21)C(C)(C)C(C)C3(C)C (configuration not stated),,active: 8.91 µM
CCNc1ccccc1,inactive,

# Molecular target: human Thyroid Receptor alpha (THRa1), THRA (gene 7067) (UniProt P10827)
# Experiment: ATG_THRa1_TRANS: Attagene TRANS-FACTORIAL HepG2 Assay for human Thyroid Receptor alpha (THRa1) (AID 2283014)
# In short: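 Transient HepG2 transfection, NR-Gal4 chimera driving GAL4-UAS reporters; 24 h compound exposure; total RNA, oligo(dT) RT, PCR, fluorescent primer extension, capillary electrophoresis. Upward direction vs DMSO control.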
Structure (SMILES),AC50,outcome
NNc1nc(-c2ccc(N)cc2)cs1,inconclusive: 2.7 µM,
Nc1ccc2cc(S(=O)(=O)O)cc(O)c2c1N=Nc1ccccc1C(F)(F)F,,inactive
CC(C)Oc1ccccc1O,,inactive
CCCCCCCCCCCCCC[n+]1ccccc1,,inactive
CCCCCCCCN1CCCC1=O,,inactive
Cc1ccc(Nc2ccc(O)c3c2C(=O)c2ccccc2C3=O)cc1,,inactive
O=C(NCc1ncc(C(F)(F)F)cc1Cl)c1c(Cl)cccc1Cl,,inactive
CCCCC(CC)CN1C(=O)C2C3C=CC(C3)C2C1=O (configuration not stated),inconclusive: 0.214 µM,
CCCCCCCCCCC1CO1 (configuration not stated),,inactive
CCCCCC#CC(=O)OC,inconclusive: 0.415 µM,
CCNc1ccccc1,,inactive
CCCCCCCC/C=C\CCCCCCCC(=O)N(C)CC(=O)O,,inactive
CC(=O)Nc1ccccc1O,inconclusive: 126 µM,
CN(C)c1ccc(C(c2ccccc2)c2ccc(N(C)C)cc2)cc1,,inactive
CCOC(=O)COC(=O)c1cc(Oc2ccc(C(F)(F)F)cc2Cl)ccc1[N+](=O)[O-],,inactive
CCOC(=O)CC(C)O (configuration not stated),,inactive
O=C(Cl)C(F)(F)C(F)(F)C(F)(F)C(F)(F)C(F)(F)C(F)(F)C(F)(F)C(F)(F)F,inconclusive: 27.4 µM,
C=C(C)[C@H]1CC=C(C)C(=O)C1,,inactive
CC(=O)OC/C=C(C)/C=C/C=C(C)/C=C/C1=C(C)CCCC1(C)C,inconclusive: 100 µM,
CC(C)c1nnc2ccc(-c3ocnc3-c3cc(F)ccc3F)cn12,inconclusive: 19.8 µM,
O=C1NC(=O)C2CC=CCC12 (configuration not stated),inconclusive: 4.5 µM,
CCCCCCC#CC(=O)OC,,inactive
O=C(O)c1ccccc1Nc1cccc(C(F)(F)F)c1,,inactive
CCN(Cc1c(F)cccc1Cl)c1c([N+](=O)[O-])cc(C(F)(F)F)cc1[N+](=O)[O-],inconclusive: 0.0438 µM,
